Reference: patent US20230296555A1
No constants are given. Whether binding was seen depends on the method and setting. Some results given as binding are weak or reduced against the parent protein; the word gives no strength.

Biological target: T1, Tau peptide (SEQ ID NO:6)
T1 sequence (peptide): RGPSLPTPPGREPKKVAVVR
Experiment: EGFET biochip, antibody captured via biotin/avidin, Tau peptide added at various concentrations, electrical signal

binding: binds
B1: biotinylated anti-Tau antibody including Tau-217-123 VL and Tau-217-123 VH (antibody, V domains shown)
VH: QVQLQQPGSELVRPGASVKLSCKASGYTFTSYWMHWVKQRHGQGLEWIGNIYPGSGSTNYDEKFKSKGTLTVDTSSSTAYMHLSSLTSEDSAVYYCTTGTAYWGQGTLVTVSA
VL: DIVMTQSPSSLSASLGERVSLTCRASQEISGYLSWLQQKPDGTIKRLIYAASTLDSGVPKRFSGSRSGSDYSLTISSLESEDFADYYCLQYASYPWTFGGGTKLEIKR
